One substance from article PMC7725820, “Heme biosynthesis depends on previously unrecognized acquisition of iron-sulfur cofactors in human amino-levulinic acid dehydratase” (Nature Communications, 2020) can be followed below.

The experiment deals with T1, C-terminally FLAG/MYC-tagged wild-type ALAD (human) (UniProt P13716).
T1 sequence: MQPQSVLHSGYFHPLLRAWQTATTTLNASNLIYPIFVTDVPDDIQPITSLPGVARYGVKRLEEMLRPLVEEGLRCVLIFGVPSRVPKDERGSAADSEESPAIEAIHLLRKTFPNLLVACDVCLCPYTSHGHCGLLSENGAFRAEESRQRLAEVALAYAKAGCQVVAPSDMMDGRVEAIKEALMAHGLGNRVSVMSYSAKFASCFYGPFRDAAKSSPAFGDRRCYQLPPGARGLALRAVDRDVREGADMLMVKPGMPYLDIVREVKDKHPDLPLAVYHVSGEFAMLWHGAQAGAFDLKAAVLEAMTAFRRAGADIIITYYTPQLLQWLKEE
Put plainly: co-IP; whole-cell lysates of HeLa cells transfected with FLAG/MYC-tagged ALAD, anti-FLAG M2 affinity gel, 4 °C overnight, acidic elution (Tris-glycine, pH 2.8), Western blot.

Results are given in words; binding and its absence hold for the method and conditions named. In cells and extracts the contact can be indirect. Tags and fused reporters may be left off the sequences shown.

With “mitochondrial HSC20 (M-HSC20) (human (endogenous in HeLa))”, the binding result is given as “no binding”.
